Data published in PubChem BioAssay AID2099 (Broad Institute, 2009).
The campaign covered roughly 330,000 compounds. About 230 (0.07%) were called active. The shares of active, inactive and inconclusive entries below differ from those in the screen.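 The calls were made as follows: active = more than half of a compound's replicate wells show inhibition beyond 50%, single wells judged on their own value; inconclusive = some, but no more than half, of replicates pass 50% inhibition; inactive = no replicate passes 50% inhibition.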 Non-standard residues stand in square brackets, D forms with d. Residues, ends and D or L forms follow the SMILES beside them. ξ: configuration not given here. *: point of attachment. Tos = Cc1ccc(S(=O)(=O)*)cc1; Inp = O=C(O)C1CCNCC1; ξP = O=C(O)C1CCCN1

Amino acid sequences for entries named in this document (tags omitted). Residues count along the entry.
UniProt Q9H3R0, 1-420 limits assumed: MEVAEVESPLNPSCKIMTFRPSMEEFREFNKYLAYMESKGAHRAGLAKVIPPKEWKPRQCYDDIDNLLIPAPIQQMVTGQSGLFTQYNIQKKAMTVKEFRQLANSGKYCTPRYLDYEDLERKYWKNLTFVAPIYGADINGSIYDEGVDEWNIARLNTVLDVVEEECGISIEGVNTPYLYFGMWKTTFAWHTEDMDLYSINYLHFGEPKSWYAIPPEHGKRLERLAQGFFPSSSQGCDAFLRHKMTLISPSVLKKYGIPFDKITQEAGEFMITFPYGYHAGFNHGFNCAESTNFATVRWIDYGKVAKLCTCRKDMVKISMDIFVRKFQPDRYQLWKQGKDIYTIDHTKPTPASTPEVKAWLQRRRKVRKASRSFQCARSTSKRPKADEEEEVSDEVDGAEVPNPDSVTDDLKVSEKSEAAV

Each compound was assayed against Lysine-specific demethylase 4C (Homo sapiens) (UniProt Q9H3R0) (assay: inhibitors of GASC-1 histone demethylase, primary screen, biochemical, fluorescence, DELFIA europium (AID 2099;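 also: signal counts dimethyl H3K9 product captured on neutravidin plate; 0% = median of DMSO wells and 100% = 0.3 times that DMSO median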)). Conditions: GST-JMJD2C(1-420) H3K9me3 demethylation, at 2.35 µM, active compounds read high.
In the case of `CC(C)(C)C#CC(CCc1ccccc1)OS(N)(=O)=O` (stereo not drawn), the inhibition is reported as inconclusive: -93.4%. With `COc1ccc(-c2nc3ccc(C)cn3c2NCc2ccc3c(c2)OCO3)cc1` the inhibition was inactive: -0.747%. `Cc1cc(=O)oc2cc(OCC(=O)NC(Cc3c[nH]c4ccc(O)cc34)C(=O)O)c(Cl)cc12` (stereo not drawn) was tested, and the inhibition was inconclusive: -373%. With `S=c1[nH]nc(/C=C/c2ccccc2)o1` the inhibition was inconclusive: -58.1%. `CCO[C@@H]1OC(C(=O)NC2CC2)=C[C@H](c2c[nH]c3ccccc23)[C@H]1CCCO` was tested, and the inhibition was active: 52.4%. `O=C(CNC(=O)N1CC(=O)Nc2ccccc21)NCc1ccc(Cl)cc1` was tested, and the inhibition was inconclusive: -175%. `CCn1c(=O)c(C(=O)NCCc2ccc(Cl)cc2)c(O)c2ccccc21` was tested, and the inhibition was active: 60.2%. In the case of `Cc1ccc(C)c(C2=NNC(=O)CC2)c1`, the inhibition is reported as inactive: -5.11%. `Cc1cc(-c2ccccc2)nc(SCC(=O)c2cccc([N+](=O)[O-])c2)n1` was tested, and the inhibition was inconclusive: -70.2%. For `CCNC(=O)N(C)c1nncnc1C(=O)NC`, the inhibition was inconclusive: -56.3%. `CCOC(=O)c1oc2ccccc2c1NC(=O)c1ccc2c(c1)OCO2` was tested, and the inhibition was inconclusive: -155%. For `COc1ccc(-n2nnnc2CNC(=O)c2ccc3c(c2)OCO3)cc1`, the inhibition was inactive: -32%. In the case of `CSCC[C@H](NC(=O)OC(C)(C)C)C(=O)NCC1CCC(C(=O)O)CC1` (stereo partly drawn), the inhibition is reported as inconclusive: -61.7%. For `NC(=O)CSc1nc(-c2ccccc2)nc2c1CCCC2`, the inhibition was inconclusive: -181%. `Cc1c(C)c2ccc(OC(C)C(=O)NCCN3CCOCC3)c(C)c2oc1=O` (stereo not drawn) was tested, and the inhibition was inconclusive: -111%. `CCOC(=O)C1CCN(C(c2cc3ccc(C)c(C)c3[nH]c2=O)c2nnnn2C2CCCCC2)CC1` (stereo not drawn) was tested, and the inhibition was inactive: 13.7%. For `Cc1cc2c(C)cc(=O)oc2c2c1NCCC2`, the inhibition was inactive: 0.659%. In the case of `CN(C)CCN(C(=O)/C=C/c1cccs1)c1nc2ccc(F)cc2s1`, the inhibition is reported as active: 50.3%. For `C=CCn1c(SCc2nc(N)nc(N3CCCCC3)n2)nnc1-c1ccco1`, the inhibition was inconclusive: -113%. With `CC1CCCN(S(=O)(=O)c2cc3c4c(c2)CCN4C(=O)CC3)C1` (stereo not drawn) the inhibition was inconclusive: -168%. `COc1ccc(C)cc1-n1nnnc1SCC(=O)Nc1cc(C)on1` was tested, and the inhibition was inconclusive: -80.8%. `O=C(CSc1nc2ccccc2c(=O)n1Cc1ccc(C(=O)NC2CC2)cc1)NCc1ccco1` was tested, and the inhibition was active: 60.8%. With `Cc1ccc(C)c(S(=O)(=O)NCC(c2ccc3c(c2)OCO3)N2CCOCC2)c1` (stereo not drawn) the inhibition was inconclusive: -55.3%. For `COCCN=C1NC(=O)C(CC(=O)Nc2cccc(Cl)c2C)S1` (stereo not drawn), the inhibition was inactive: -11.6%. For `O=C(NCCc1cnc[nH]1)c1ccc(-c2ccccc2)cc1`, the inhibition was inactive: -1.05%. For `CC(C)(C)c1ccc(-c2nc3[nH]c(=O)cc(NC(=O)c4ccco4)n3n2)cc1`, the inhibition was inconclusive: -152%. For `Cc1ccc(S(=O)(=O)N(CC(=O)NCc2ccccc2Cl)C(=O)N2CCN(C)CC2)cc1`, the inhibition was inconclusive: -46.7%. In the case of `COc1ccc(C(=O)NCC2CCCN2S(=O)(=O)c2cccs2)cc1` (stereo not drawn), the inhibition is reported as inconclusive: -173%. For `CN(CC(=O)Nc1cccc(F)c1)C(=O)C1CCN(S(=O)(=O)c2ccc3c(c2)OCCO3)CC1`, the inhibition was inconclusive: -40.6%. `CCN1CCc2c(OCC(=O)Nc3ccc(C)cc3)cccc2C1=O` was tested, and the inhibition was inactive: -3.45%. In the case of `CC(C)(C)NC(=S)NNC(=O)c1cccc(Br)c1`, the inhibition is reported as inactive: -6.5%. `Clc1ccccc1Nc1c2c(nc3ncnn13)CCC2` was tested, and the inhibition was inconclusive: -138%. In the case of `C/C(=N/NC(=O)c1ccccn1)c1ccc(O)cc1`, the inhibition is reported as inactive: -10.1%. `O=C1SC(SCc2ccccc2)=N/C1=C\c1ccc(C(=O)O)cc1` was tested, and the inhibition was inactive: -5.81%. With `O=c1c(C(c2ccc(Br)cc2)c2c(O)nc3n(c2=O)CCCS3)c(O)nc2n1CCCS2` the inhibition was inconclusive: -74.8%. For `CCOC(=O)N1CCN(C(=O)CN(c2cccc(C)c2)S(=O)(=O)c2ccc(C)cc2)CC1`, the inhibition was inconclusive: -107%. With `CCOC(=O)N1CCN(C(=O)CSCC(=O)Nc2nc(-c3ccc(Cl)s3)cs2)CC1` the inhibition was inconclusive: -50.5%. In the case of `O=C(c1cc(C(=O)N2CCCC2)cc([N+](=O)[O-])c1)N1CCCC1`, the inhibition is reported as inactive: 1.08%. `O=C(COc1ccccc1)N=C1SC2CS(=O)(=O)CC2N1c1cccc(F)c1` (stereo not drawn) was tested, and the inhibition was inconclusive: -103%. In the case of `Clc1ccc(SCc2cn3ccsc3n2)cc1`, the inhibition is reported as inactive: 4.77%. In the case of `CCCc1cc(=O)oc2cc(C)cc(OCC(=O)NC(Cc3c[nH]c4ccc(O)cc34)C(=O)O)c12` (stereo not drawn), the inhibition is reported as inconclusive: -65.9%. For `O=C(NCc1cccc(F)c1)C1CCC(=O)N(C2CC2)C1` (stereo not drawn), the inhibition was inactive: 4.46%. With `COc1cccc(N=c2oc3ccc(OC)cc3cc2-c2nc3ccccc3[nH]2)c1` the inhibition was inconclusive: -100%. With `O=C(O)CC(NC(=O)C1c2ccccc2Oc2ccccc21)c1ccc(Cl)cc1` (stereo not drawn) the inhibition was inactive: -0.94%. In the case of `CCCCOc1cccc(-c2cc(C(=O)NNC(=S)NCC)c3ccccc3n2)c1`, the inhibition is reported as inactive: 6.66%. For `O=C(CNC(=O)[C@@H]1Cc2ccccc2CN1)Nc1ccc2c(c1)OCCO2`, the inhibition was inconclusive: -111%. For `COc1ccc(C2(c3ccc(OC)cc3)NC(=O)N(CC(=O)Nc3ccc(OC)c(OC)c3)C2=O)cc1`, the inhibition was inactive: -21.4%. With `O=C(NC(Cc1ccccc1)c1ccc2c(c1)OCCCO2)c1ccccc1` (stereo not drawn) the inhibition was inconclusive: -130%. For `Cc1cccn2c(=O)c(C(=O)NC3CC(C)CC(C)(C)C3)c(O)nc12` (stereo not drawn), the inhibition was active: 52.5%. `Cc1ccc(S(=O)(=O)N2CCC(C(=O)N3CCCC3C(=O)N[C@@H](CC(C)C)C(=O)NCC(N)=O)CC2)cc1` (stereo partly drawn) ({Tos-Inp}-[ξP]-Leu-Gly-NH2) was tested, and the inhibition was inconclusive: -228%. For `CCNC(=S)NC(=NCc1cccnc1)Nc1nc(C)cc(C)n1`, the inhibition was active: 75.8%. In the case of `C=CCn1c(N)c(-c2nc3ccccc3n2C)sc1=S`, the inhibition is reported as active: 50.3%. With `CCOC(=O)c1c(C)[nH]c(C(=O)CSc2nnc(C3CC3)n2N)c1C` the inhibition was inconclusive: -54.8%. For `CCN(c1ccccc1C(=O)O)S(=O)(=O)c1cccc2nsnc12`, the inhibition was inactive: -5.92%. `Cc1ccc(S(=O)(=O)N2CCN(C(=O)CSc3nc4ccccc4c(=O)[nH]3)CC2)cc1` was tested, and the inhibition was inconclusive: -229%. With `C[C@H](NC(=O)[C@H](Cc1ccccc1)n1c(=O)[nH]c2ccccc2c1=O)C(=O)N1CCC[C@H]1C(=O)O` the inhibition was inconclusive: -491%. With `CCCc1[nH][nH]c(=O)c1C(c1ccc(Cl)cc1)C(C#N)C#N` (stereo not drawn) the inhibition was inconclusive: 30.8%. `O=C(NCC1(c2ccccc2)CCCC1)C1(c2ccccc2)CCCC1` was tested, and the inhibition was inactive: -26.5%. For `C=CCC1NS(=O)(=O)OC(CCc2ccccc2)C1O` (stereo not drawn), the inhibition was inconclusive: -61%. `CCOC(=O)c1c(NC(=O)Nc2ccccc2)sc(C)c1C` was tested, and the inhibition was inactive: -27.6%. In the case of `COC(C[C@H]1O[C@H]1[C@@H](O)[C@@H](C)OCc1ccccc1)OC`, the inhibition is reported as inconclusive: -363%. For `CCOC(=O)Cc1csc(N/N=C\c2ccc(N(C)C)cc2)n1`, the inhibition was inconclusive: -116%. In the case of `COc1ccc(C2C3=C(N=C4SCC(=O)N42)c2ccccc2CC3)cc1` (stereo not drawn), the inhibition is reported as inactive: -2.97%. For `Cc1nnc2sc(-c3csc4c3CCCC4)nn12`, the inhibition was inactive: -3.34%. In the case of `COc1ncnc(-c2ccccc2)c1-c1ccccc1`, the inhibition is reported as inactive: -2.08%. For `O=C(CCNC(=O)C1CCN(S(=O)(=O)c2ccc(F)cc2)CC1)NC1CC1`, the inhibition was inconclusive: -117%. With `COC(=O)Cc1csc(NC(=O)CSc2nncn2C)n1` the inhibition was inactive: 16.4%. In the case of `CCCc1cc(=O)oc2c(C)c(OCC(=O)N3CCC(C(=O)O)(c4ccccc4)CC3)ccc12`, the inhibition is reported as inconclusive: -144%. With `Cc1ccccc1NC(=O)Cn1nnc(-c2ccc(N3CCOCC3)cc2)n1` the inhibition was inconclusive: -52.4%. With `CCCCN(C)Cc1c(O)ccc2c(-c3ccccc3)cc(=O)oc12` the inhibition was inconclusive: -99%. In the case of `COc1ccccc1NC(=O)CCN1C(=O)/C(=C\c2cc(OC)c(OC)c(OC)c2)SC1=S`, the inhibition is reported as inconclusive: -105%. `CCOc1ccc(NC(=O)NCCCn2c(C)nc3cc(C)c(C)cc32)cc1` was tested, and the inhibition was inconclusive: -126%. In the case of `CC(C)c1nnc(NC(=O)CCS(=O)(=O)c2nc(-c3cccs3)cc(C(F)(F)F)n2)s1`, the inhibition is reported as inconclusive: -98.7%. With `CS(=O)(=O)N(CC(=O)Nc1ccccc1)c1cccc(Cl)c1Cl` the inhibition was inconclusive: -51.5%. `O=C(O)c1ccc(-c2ncc[nH]2)cc1` was tested, and the inhibition was inconclusive: -50.9%. `O=C(NCC(c1ccco1)N1CCN(c2ccccc2F)CC1)c1cccs1` (stereo not drawn) was tested, and the inhibition was inconclusive: -44.3%. For `Cc1ccc(OC(C)C(=O)Nc2ccc3c(c2)n(C)c(=O)n3C)c(C)c1` (stereo not drawn), the inhibition was inactive: -0.487%. `CCCCC(=O)Nc1ccc(NC(=O)C2CC2)cn1` was tested, and the inhibition was inactive: 4.29%. In the case of `Cn1c(SCC(=O)c2ccc3c(c2)OCCO3)nnc1C1CC1`, the inhibition is reported as inconclusive: -61.4%. For `Cc1ccc(C)n1-c1sccc1C(=O)O`, the inhibition was inconclusive: -89.4%. With `COc1ccc(N2CCN(C(=O)CSc3nnc(-c4ccco4)n3C)CC2)cc1` the inhibition was active: 64.1%. In the case of `COc1ccc2c(c1)CC(C1(O)C(=O)N(C)c3ccccc31)C2=O` (stereo not drawn), the inhibition is reported as active: 50.6%. With `O=C(Nc1nc2ccccc2[nH]1)c1ccccc1OC(F)F` the inhibition was inactive: -2.74%. For `O=C(OCN1C(=O)c2ccccc2C1=O)c1cccc(OC(F)F)c1`, the inhibition was inactive: 5.21%. `CC(C)c1ccc(NC(=O)c2ccc3snnc3c2)cc1` was tested, and the inhibition was inconclusive: -54.1%. For `Cc1nn(CC(=O)Nc2ccc3c(c2)nc(CN2CCCCC2)n3C)c(=O)c2ccccc12`, the inhibition was inconclusive: -50.8%. With `CCN1CCC(O)(C#Cc2ccccc2)CC1` the inhibition was inconclusive: -71%. With `O=C(CN1CCN(c2ccccn2)CC1)Nc1ccccc1C(=O)Nc1ccccc1` the inhibition was inconclusive: -143%.
